Assay results reported in patent US8828474B2, “Apparatus and methods for loading a drug eluting medical device” (Medtronic Vascular, Inc., priority 2009, dated 2014).
The name of at least one read-out is uncertain. At least one compound was matched to its structure with a doubt left.

Test: Solubility of sirolimus in solvents / dispersion media
Format: physicochemical
Method: Solution 524 is a homogeneous mixture in which therapeutic substance 112 dissolves within a solvent or a solvent mixture. In one embodiment, solution 524 includes a high-capacity solvent 528 which is an organic solvent that has a high capacity to dissolve therapeutic substance 112. High capacity as utilized herein is defined as an ability to dissolve therapeutic substance 112 at concentrations greater than 500 mg of substance per milliliter of solvent. Examples of high capacity drug dissolving solvents for sirolimus and similar substances include but are not limited to tetrahydrofuran (THF), di-chloromethane (DCM), chloroform, and di-methyl-sulfoxide (DMSO). In addition to the high-capacity solvent, solution 524 may include an excipient 526 in order to assist in drug elution. In one embodiment, excipient 526 may be a surfactant such as but not limited to sorbitan fatty acid esters such as sorbitan monooleate and sorbitan monolaurate, polysorbates such as polysorbate 20, polysorbate 60, and polysorbate 80, cyclodextrins such as 2-hydroxypropyl-beta-cyclodextrin and 2,6-di-O-methyl-beta-cyclodextrin, sodium dodecyl sulfate, octyl glucoside, and low molecular weight poly(ethylene glycol)s. In another embodiment, excipient 526 may be a hydrophilic agent such as but not limited to salts such as sodium chloride and other materials such as urea, citric acid, and ascorbic acid. In yet another embodiment, excipient 526 may be a stabilizer such as but not limited to butylated hydroxytoluene (BHT). Depending on the desired drug load, a low capacity solvent can also be chosen for its reduced solubility of therapeutic substance 112. Low capacity is defined as an ability to dissolve therapeutic substance 112 at concentrations typically below 500 mg of drug per milliliter solvent. Examples of low capacity drug dissolving solvents for sirolimus and similar substances include but are not limited to methanol, ethanol, propanol, acetonitrile, ethyl lactate, acetone, and solvent mixtures like tetrahydrafuran/water (9:1 weight ratio). […]

CO[C@H]1C[C@@H]2CC[C@@H](C)[C@@](O)(O2)C(=O)C(=O)N2CCCC[C@H]2C(=O)O[C@H]([C@H](C)C[C@@H]2CC[C@@H](O)[C@H](OC)C2)CC(=O)[C@H](C)/C=C(\C)[C@@H](O)[C@@H](OC)C(=O)[C@H](C)C[C@H](C)/C=C/C=C/C=C/1C [sirolimus]
solubilizing by supercritical carbon dioxide (SCCO2) (SCCO2): low capacity | ability of high capacity solvent to dissolve therapeutic substance (high capacity solvents: tetrahydrofuran (THF), di-chloromethane (DCM), chloroform, di-methyl-sulfoxide (DMSO)): greater than 500 mg of substance per milliliter of solvent | ability of low capacity solvent to dissolve therapeutic substance (low capacity solvents: methanol, ethanol, propanol, acetonitrile, ethyl lactate, acetone, tetrahydrafuran/water (9:1 weight ratio)): below 500 mg of drug per milliliter solvent
